No constants are given. Whether binding was seen depends on the method and setting. In cells and extracts the contact can be indirect. A yes stands for co-enrichment or nearness to the bait. Other partners may have been found.

The chains behind the UniProt entries cited, without tags or fusion partners.
UniProt Q02566: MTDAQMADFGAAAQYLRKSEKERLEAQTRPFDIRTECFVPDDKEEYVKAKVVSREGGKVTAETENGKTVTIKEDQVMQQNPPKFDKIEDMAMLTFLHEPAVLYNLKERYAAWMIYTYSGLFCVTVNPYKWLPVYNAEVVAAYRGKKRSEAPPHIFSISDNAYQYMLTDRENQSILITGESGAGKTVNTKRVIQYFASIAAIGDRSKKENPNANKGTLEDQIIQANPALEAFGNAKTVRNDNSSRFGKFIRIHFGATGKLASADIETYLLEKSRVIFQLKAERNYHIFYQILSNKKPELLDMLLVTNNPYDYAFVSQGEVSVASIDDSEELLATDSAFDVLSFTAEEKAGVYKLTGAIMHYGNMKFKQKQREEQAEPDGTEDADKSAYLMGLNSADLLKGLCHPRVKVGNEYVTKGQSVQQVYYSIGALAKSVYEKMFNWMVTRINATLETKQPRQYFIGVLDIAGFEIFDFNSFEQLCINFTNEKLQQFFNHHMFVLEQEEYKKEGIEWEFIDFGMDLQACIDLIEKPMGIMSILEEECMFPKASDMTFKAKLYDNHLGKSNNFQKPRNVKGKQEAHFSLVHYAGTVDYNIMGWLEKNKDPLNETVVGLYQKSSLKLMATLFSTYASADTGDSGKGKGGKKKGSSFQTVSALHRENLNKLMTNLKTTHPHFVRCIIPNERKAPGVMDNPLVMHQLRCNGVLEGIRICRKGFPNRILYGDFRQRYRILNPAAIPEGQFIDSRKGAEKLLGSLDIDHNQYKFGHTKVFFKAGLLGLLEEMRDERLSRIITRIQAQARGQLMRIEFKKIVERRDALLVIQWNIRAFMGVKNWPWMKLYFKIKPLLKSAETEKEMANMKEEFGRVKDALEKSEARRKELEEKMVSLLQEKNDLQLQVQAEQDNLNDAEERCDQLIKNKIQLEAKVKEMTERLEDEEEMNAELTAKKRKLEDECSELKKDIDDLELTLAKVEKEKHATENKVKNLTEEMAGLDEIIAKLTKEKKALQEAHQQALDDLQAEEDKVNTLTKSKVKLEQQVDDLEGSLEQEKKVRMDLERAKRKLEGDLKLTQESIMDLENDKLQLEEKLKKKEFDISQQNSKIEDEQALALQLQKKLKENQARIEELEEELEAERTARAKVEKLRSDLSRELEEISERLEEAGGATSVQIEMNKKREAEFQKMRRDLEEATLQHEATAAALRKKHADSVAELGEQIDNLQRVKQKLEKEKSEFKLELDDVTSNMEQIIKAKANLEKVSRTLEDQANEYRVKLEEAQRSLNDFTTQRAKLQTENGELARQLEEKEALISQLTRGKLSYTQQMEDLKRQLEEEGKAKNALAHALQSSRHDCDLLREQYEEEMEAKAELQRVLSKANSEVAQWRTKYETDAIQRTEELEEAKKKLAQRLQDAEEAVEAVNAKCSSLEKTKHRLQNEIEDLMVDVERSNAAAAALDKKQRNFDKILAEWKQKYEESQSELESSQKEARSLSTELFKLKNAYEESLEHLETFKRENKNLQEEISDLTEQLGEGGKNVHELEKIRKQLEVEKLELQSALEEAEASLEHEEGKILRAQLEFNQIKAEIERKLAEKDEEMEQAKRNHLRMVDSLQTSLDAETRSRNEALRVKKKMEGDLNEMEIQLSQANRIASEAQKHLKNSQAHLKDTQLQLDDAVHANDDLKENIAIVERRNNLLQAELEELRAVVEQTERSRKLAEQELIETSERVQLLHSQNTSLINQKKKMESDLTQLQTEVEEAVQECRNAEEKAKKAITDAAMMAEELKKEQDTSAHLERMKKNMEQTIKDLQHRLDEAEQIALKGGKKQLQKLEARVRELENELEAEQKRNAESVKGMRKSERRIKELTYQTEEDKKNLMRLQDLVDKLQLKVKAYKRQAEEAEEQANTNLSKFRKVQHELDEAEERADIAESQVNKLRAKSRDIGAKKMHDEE
UniProt Q91Z83: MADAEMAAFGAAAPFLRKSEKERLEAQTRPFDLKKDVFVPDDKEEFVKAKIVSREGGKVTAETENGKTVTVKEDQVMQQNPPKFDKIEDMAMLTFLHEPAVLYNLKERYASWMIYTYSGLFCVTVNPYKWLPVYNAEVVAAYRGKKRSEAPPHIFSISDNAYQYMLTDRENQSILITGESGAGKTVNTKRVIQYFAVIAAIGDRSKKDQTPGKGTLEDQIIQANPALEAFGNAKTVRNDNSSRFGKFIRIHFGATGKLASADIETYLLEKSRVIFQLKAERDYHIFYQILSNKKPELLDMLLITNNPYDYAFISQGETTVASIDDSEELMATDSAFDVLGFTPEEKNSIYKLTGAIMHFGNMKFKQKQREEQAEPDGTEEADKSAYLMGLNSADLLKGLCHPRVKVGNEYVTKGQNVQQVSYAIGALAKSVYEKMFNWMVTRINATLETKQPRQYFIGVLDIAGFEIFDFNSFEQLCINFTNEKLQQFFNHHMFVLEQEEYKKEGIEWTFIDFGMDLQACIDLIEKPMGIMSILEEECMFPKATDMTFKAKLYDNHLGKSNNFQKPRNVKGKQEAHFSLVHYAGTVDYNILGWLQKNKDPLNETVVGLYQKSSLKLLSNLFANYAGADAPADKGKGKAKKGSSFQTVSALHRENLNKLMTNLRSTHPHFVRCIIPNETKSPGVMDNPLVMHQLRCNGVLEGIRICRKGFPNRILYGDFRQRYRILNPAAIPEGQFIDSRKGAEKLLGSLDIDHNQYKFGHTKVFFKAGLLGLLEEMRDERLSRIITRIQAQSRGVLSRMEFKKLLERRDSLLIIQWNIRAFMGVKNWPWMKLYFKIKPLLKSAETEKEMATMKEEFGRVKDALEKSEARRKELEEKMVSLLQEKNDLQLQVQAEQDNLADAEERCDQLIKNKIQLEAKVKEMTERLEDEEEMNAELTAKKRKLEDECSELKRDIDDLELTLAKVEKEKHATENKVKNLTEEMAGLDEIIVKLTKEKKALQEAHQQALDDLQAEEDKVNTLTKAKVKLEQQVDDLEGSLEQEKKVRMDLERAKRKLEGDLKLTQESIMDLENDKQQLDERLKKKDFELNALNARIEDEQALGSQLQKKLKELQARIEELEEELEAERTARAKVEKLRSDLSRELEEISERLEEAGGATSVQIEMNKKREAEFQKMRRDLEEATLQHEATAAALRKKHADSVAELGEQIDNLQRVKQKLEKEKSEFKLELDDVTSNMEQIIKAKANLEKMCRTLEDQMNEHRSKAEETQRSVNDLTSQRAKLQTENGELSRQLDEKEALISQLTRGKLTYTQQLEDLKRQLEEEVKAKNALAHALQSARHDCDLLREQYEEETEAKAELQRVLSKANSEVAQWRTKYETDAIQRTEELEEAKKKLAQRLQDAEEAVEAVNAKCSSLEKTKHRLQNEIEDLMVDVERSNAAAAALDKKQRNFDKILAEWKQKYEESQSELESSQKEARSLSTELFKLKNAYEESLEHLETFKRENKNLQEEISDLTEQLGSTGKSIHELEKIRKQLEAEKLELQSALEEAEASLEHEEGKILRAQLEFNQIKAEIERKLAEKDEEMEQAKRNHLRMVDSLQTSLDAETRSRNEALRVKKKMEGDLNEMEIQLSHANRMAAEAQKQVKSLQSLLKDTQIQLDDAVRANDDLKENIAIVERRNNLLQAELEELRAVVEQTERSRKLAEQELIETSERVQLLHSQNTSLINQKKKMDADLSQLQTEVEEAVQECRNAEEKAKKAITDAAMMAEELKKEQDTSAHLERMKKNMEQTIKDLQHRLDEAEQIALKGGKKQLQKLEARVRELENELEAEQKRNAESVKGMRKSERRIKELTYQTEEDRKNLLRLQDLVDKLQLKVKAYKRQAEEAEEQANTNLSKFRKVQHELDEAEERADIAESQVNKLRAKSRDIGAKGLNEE

This assay concerns the target T1, YTHDF2 (mouse (endogenous in primary mouse cardiomyocytes)) (UniProt Q91YT7).
T1 sequence: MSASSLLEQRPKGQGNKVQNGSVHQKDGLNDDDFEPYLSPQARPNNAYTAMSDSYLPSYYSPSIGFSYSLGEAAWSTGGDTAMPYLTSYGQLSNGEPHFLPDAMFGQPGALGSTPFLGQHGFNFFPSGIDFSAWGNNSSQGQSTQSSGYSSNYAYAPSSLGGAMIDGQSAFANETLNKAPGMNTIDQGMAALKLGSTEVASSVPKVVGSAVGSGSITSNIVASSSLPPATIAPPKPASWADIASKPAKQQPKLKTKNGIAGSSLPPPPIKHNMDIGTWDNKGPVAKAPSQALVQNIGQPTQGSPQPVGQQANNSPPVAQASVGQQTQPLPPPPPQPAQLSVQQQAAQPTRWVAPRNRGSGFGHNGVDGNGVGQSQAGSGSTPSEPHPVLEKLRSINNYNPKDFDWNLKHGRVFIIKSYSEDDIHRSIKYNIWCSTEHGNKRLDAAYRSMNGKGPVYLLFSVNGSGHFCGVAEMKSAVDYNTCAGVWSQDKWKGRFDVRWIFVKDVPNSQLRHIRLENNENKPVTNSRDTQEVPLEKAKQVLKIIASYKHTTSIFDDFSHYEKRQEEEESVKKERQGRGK
Put plainly: affinity purification with mass spectrometry; lysate of primary cardiomyocytes treated with ISO or DMSO for 24 h; 300 μg proteins incubated with anti-YTHDF2 or rabbit IgG at 4 °C overnight, protein A/G-agarose beads; SDS-PAGE, silver stain, LC-MS/MS.

Consider “MYH6 (α-myosin heavy chain) (from UniProt Q02566 1-1938)”, for which the binding entry was “binds”.
With “MYH7 (beta-myosin heavy chain) (from UniProt Q91Z83 1-1935)”, the binding result is “binds”.

(Values after paper PMC8281596.)
